Patent publication US20090285813A1
Results are given in words; binding and its absence hold for the method and conditions named. Some entries that bind do so weakly or less than the wild type. One block for each binder: values may come before it.

Sequences of proteins named here, by UniProt entry; tags and fusion partners are left off.
UniProt P11836: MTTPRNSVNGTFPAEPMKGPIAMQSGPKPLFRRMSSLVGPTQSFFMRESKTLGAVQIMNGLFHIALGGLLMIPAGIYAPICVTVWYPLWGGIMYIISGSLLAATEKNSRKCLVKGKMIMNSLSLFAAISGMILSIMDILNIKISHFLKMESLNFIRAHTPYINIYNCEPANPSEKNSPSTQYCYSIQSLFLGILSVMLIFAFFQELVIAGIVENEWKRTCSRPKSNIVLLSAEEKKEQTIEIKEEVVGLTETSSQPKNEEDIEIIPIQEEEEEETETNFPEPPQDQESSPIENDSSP

Columns and labels:
human CD20 (human) [1] = biological target: human CD20 (human) (UniProt P11836); assay: anti-CD20 cellular ELISA, supernatant; rank 20 of 29
human CD20 (human) [2] = biological target: human CD20 (human) (UniProt P11836); assay: anti-CD20 cellular ELISA, supernatant; rank 28 of 29
human CD20 (human) [3] = biological target: human CD20 (human) (UniProt P11836); assay: anti-CD20 cellular ELISA, supernatant; rank 9 of 29
human CD20 (human) [4] = biological target: human CD20 (human) (UniProt P11836); assay: anti-CD20 cellular ELISA, supernatant; rank 19 of 29
human CD20 (human) [5] = biological target: human CD20 (human) (UniProt P11836); assay: anti-CD20 cellular ELISA, supernatant; rank 21 of 29
human CD20 (human) [6] = biological target: human CD20 (human) (UniProt P11836); assay: anti-CD20 cellular ELISA, supernatant; rank 26 of 29
human CD20 (human) [7] = biological target: human CD20 (human) (UniProt P11836); assay: anti-CD20 cellular ELISA, supernatant; rank 15 of 29
human CD20 (human) [8] = biological target: human CD20 (human) (UniProt P11836); assay: anti-CD20 cellular ELISA, supernatant; rank 17 of 29
human CD20 (human) [9] = biological target: human CD20 (human) (UniProt P11836); assay: anti-CD20 cellular ELISA, supernatant; rank 27 of 29
human CD20 (human) [10] = biological target: human CD20 (human) (UniProt P11836); assay: anti-CD20 cellular ELISA, supernatant; rank 12 of 29
human CD20 (human) [11] = biological target: human CD20 (human) (UniProt P11836); assay: anti-CD20 cellular ELISA, supernatant; rank 13 of 29
human CD20 (human) [12] = biological target: human CD20 (human) (UniProt P11836); assay: anti-CD20 cellular ELISA, supernatant; rank 23 of 29
human CD20 (human) [13] = biological target: human CD20 (human) (UniProt P11836); assay: anti-CD20 cellular ELISA, supernatant; rank 18 of 29
human CD20 (human) [14] = biological target: human CD20 (human) (UniProt P11836); assay: anti-CD20 cellular ELISA, supernatant; rank 29 of 29
human CD20 (human) [15] = biological target: human CD20 (human) (UniProt P11836); assay: anti-CD20 cellular ELISA, supernatant; rank 11 of 29
human CD20 (human) [16] = biological target: human CD20 (human) (UniProt P11836); assay: anti-CD20 cellular ELISA, supernatant; rank 10 of 29
human CD20 (human) [17] = biological target: human CD20 (human) (UniProt P11836); assay: anti-CD20 cellular ELISA, supernatant; rank 25 of 29

B1: anti-CD20 HuFR variant 20 (light chain BD22100, heavy chain BD20335) (antibody, human IgG1, kappa, V domains shown)
VH: QVQLVQSGAEVKKPGASVKVSCKASGYTFTSYNMHWVRQAPGKGLEWMGAIYPGNGDTSYNQKFKGRFTISRDNAKNSLYLQMNSLRAEDTAVYYCARSHYGSNYVDYFDYWGQGTLVTVSS
VL: DIQMTQSPSTLSASVGDRVTITCRASSSLSFMHWYQQKPGQAPRLLIYATSNLASGVPSRFSGSGSGTDFTFTISSLQPEDIATYYCHQWSSNPLTFGQGTKVEIKR
binding (human CD20 (human) [1]): binds

B2: anti-CD20 HuFR variant 28 (light chain BD22111, heavy chain BD20336) (antibody, human IgG1, kappa, V domains shown)
VH: QVQLVQSGAEVKKPGASVKVSCKASGYTFTSYNMHWVRQAPGKGLEWVGAIYPGNGDTSYNQKFKGRFTISRDNAKNSLYLQMNSLRAEDTAVYYCARSHYGSNYVDYFDYWGQGTLVTVSS
VL: DIVMTQSPDSLAVSLGERATINCRASSSLSFMHWYQQKPGKAPKLLIYATSNLASGVPSRFSGSGSGTEFTLTISSLQPDDFATYYCHQWSSNPLTFGQGTKVEIKR
binding (human CD20 (human) [2]): binds

B3: anti-CD20 HuFR variant 9 (light chain BD22091, heavy chain BD20337) (antibody, human IgG1, kappa, V domains shown)
VH: QVQLVQSGAEVKKPGASVKVSCKASGYTFTSYNMHWVRQAPGQGLEWMGAIYPGNGDTSYNQKFKGRVTISADKSISTAYLQWSSLKASDTAMYYCARSHYGSNYVDYFDYWGQGTLVTVSS
VL: EIVLTQSPATLSLSPGERATLSCRASSSLSFMHWYQQKPGQPPKLLIYATSNLASGIPARFSGSGSGTEFTLTISSLQSEDFAVYYCHQWSSNPLTFGQGTKVEIKR
binding (human CD20 (human) [3]): binds

B6: anti-CD20 HuFR variant 26 (light chain BD22108, heavy chain BD20338) (antibody, human IgG1, kappa, V domains shown)
VH: EVQLVQSGAEVKKPGESLKISCKGSGYTFTSYNMHWVRQAPGKGLEWMGAIYPGNGDTSYNQKFKGRVTISADKSISTAYLQWSSLKASDTAMYYCARSHYGSNYVDYFDYWGQGTLVTVSS
VL: DIVMTQSPLSLPVTPGEPASISCRASSSLSFMHWYQQKPGQAPRLLIYATSNLASGVPSRFSGSGSGTDFTFTISSLQPEDIATYYCHQWSSNPLTFGQGTKVEIKR
binding (human CD20 (human) [6]): binds

B9: anti-CD20 HuFR variant 27 (light chain BD22109, heavy chain BD20341) (antibody, human IgG1, kappa, V domains shown)
VH: QVQLVQSGAEVKKPGASVKVSCKASGYTFTSYNMHWVRQAPGQGLEWMGAIYPGNGDTSYNQKFKGRVTITADKSTSTAYMELSSLRSEDTAVYYCARSHYGSNYVDYFDYWGQGTLVTVSS
VL: DIVMTQSPDSLAVSLGERATINCRASSSLSFMHWYQQKPGQPPKLLIYATSNLASGIPARFSGSGSGTDFTLTISSLEPEDFAVYYCHQWSSNPLTFGQGTKVEIKR
binding (human CD20 (human) [9]): binds

B11: anti-CD20 HuFR variant 13 (light chain BD22096, heavy chain BD20337) (antibody, human IgG1, kappa, V domains shown)
VH: QVQLVQSGAEVKKPGASVKVSCKASGYTFTSYNMHWVRQAPGQGLEWMGAIYPGNGDTSYNQKFKGRVTISADKSISTAYLQWSSLKASDTAMYYCARSHYGSNYVDYFDYWGQGTLVTVSS
VL: EIVLTQSPATLSLSPGERATLSCRASSSLSFMHWYQQKPGKAPKLLIYATSNLASGVPSRFSGSGSGTEFTLTISSLQPDDFATYYCHQWSSNPLTFGQGTKVEIKR
binding (human CD20 (human) [11]): binds

B16: anti-CD20 HuFR variant 10 (light chain BD22108, heavy chain BD20337) (antibody, human IgG1, kappa, V domains shown)
VH: QVQLVQSGAEVKKPGASVKVSCKASGYTFTSYNMHWVRQAPGQGLEWMGAIYPGNGDTSYNQKFKGRVTISADKSISTAYLQWSSLKASDTAMYYCARSHYGSNYVDYFDYWGQGTLVTVSS
VL: DIVMTQSPLSLPVTPGEPASISCRASSSLSFMHWYQQKPGQAPRLLIYATSNLASGVPSRFSGSGSGTDFTFTISSLQPEDIATYYCHQWSSNPLTFGQGTKVEIKR
binding (human CD20 (human) [16]): binds

B17: anti-CD20 HuFR variant 25 (light chain BD22106, heavy chain BD20333) (antibody, human IgG1, kappa, V domains shown)
VH: QVQLVQSGAEVKKPGASVKVSCKASGYTFTSYNMHWVRQAPGKGLEWVGAIYPGNGDTSYNQKFKGRVTITADKSTSTAYMELSSLRSEDTAVYYCARSHYGSNYVDYFDYWGQGTLVTVSS
VL: EIVLTQSPGTLSLSPGERATLSCRASSSLSFMHWYQQKPGQAPRLLIYATSNLASGVPSRFSGSGSGTDFTFTISSLQPEDIATYYCHQWSSNPLTFGQGTKVEIKR
binding (human CD20 (human) [17]): binds

More lines, now with the values ahead:

binding (human CD20 (human) [4]): binds
B4: anti-CD20 HuFR variant 19 (light chain BD22107, heavy chain BD20339) (antibody, human IgG1, kappa, V domains shown)
VH: QVQLVQSGAEVKKPGASVKVSCKASGYTFTSYNMHWVRQAPGKGLEWMGAIYPGNGDTSYNQKFKGRVTITADKSTSTAYMELSSLRSEDTAVYYCARSHYGSNYVDYFDYWGQGTLVTVSS
VL: DIVMTQSPLSLPVTPGEPASISCRASSSLSFMHWYLQKPGQSPQLLIYATSNLASGIPARFSGSGSGTDFTLTISSLEPEDFAVYYCHQWSSNPLTFGQGTKVEIKR

binding (human CD20 (human) [5]): binds
B5: anti-CD20 HuFR variant 21 (light chain BD22103, heavy chain BD20337) (antibody, human IgG1, kappa, V domains shown)
VH: QVQLVQSGAEVKKPGASVKVSCKASGYTFTSYNMHWVRQAPGQGLEWMGAIYPGNGDTSYNQKFKGRVTISADKSISTAYLQWSSLKASDTAMYYCARSHYGSNYVDYFDYWGQGTLVTVSS
VL: DIVMTQSPLSLPVTPGEPASISCRASSSLSFMHWYQQKPGKAPKLLIYATSNLASGVPDRFSGSGSGTDFTLTISSLQAEDVAVYYCHQWSSNPLTFGQGTKVEIKR

binding (human CD20 (human) [7]): binds
B7: anti-CD20 HuFR variant 15 (light chain BD22102, heavy chain BD20337) (antibody, human IgG1, kappa, V domains shown)
VH: QVQLVQSGAEVKKPGASVKVSCKASGYTFTSYNMHWVRQAPGQGLEWMGAIYPGNGDTSYNQKFKGRVTISADKSISTAYLQWSSLKASDTAMYYCARSHYGSNYVDYFDYWGQGTLVTVSS
VL: EIVMTQSPATLSVSPGERATLSCRASSSLSFMHWYQQKPGQPPKLLIYATSNLASGVPSRFSGSGSGTDFTLTISSLQPEDFATYYCHQWSSNPLTFGQGTKVEIKR

binding (human CD20 (human) [8]): binds
B8: anti-CD20 HuFR variant 17 (light chain BD22104, heavy chain BD20337) (antibody, human IgG1, kappa, V domains shown)
VH: QVQLVQSGAEVKKPGASVKVSCKASGYTFTSYNMHWVRQAPGQGLEWMGAIYPGNGDTSYNQKFKGRVTISADKSISTAYLQWSSLKASDTAMYYCARSHYGSNYVDYFDYWGQGTLVTVSS
VL: EIVMTQSPATLSVSPGERATLSCRASSSLSFMHWYLQKPGQSPQLLIYATSNLASGVPSRFSGSGSGTDFTLTISSLQPEDFATYYCHQWSSNPLTFGQGTKVEIKR

binding (human CD20 (human) [10]): binds
B10: anti-CD20 HuFR variant 12 (light chain BD22094, heavy chain BD20337) (antibody, human IgG1, kappa, V domains shown)
VH: QVQLVQSGAEVKKPGASVKVSCKASGYTFTSYNMHWVRQAPGQGLEWMGAIYPGNGDTSYNQKFKGRVTISADKSISTAYLQWSSLKASDTAMYYCARSHYGSNYVDYFDYWGQGTLVTVSS
VL: DIVMTQSPLSLPVTPGEPASISCRASSSLSFMHWYQQKPGQAPRLLIYATSNLASGVPSRFSGSGSGTEFTLTISSLQPDDFATYYCHQWSSNPLTFGQGTKVEIKR

binding (human CD20 (human) [12]): binds
B12: anti-CD20 HuFR variant 23 (light chain BD22108, heavy chain BD20337) (antibody, human IgG1, kappa, V domains shown)
VH: QVQLVQSGAEVKKPGASVKVSCKASGYTFTSYNMHWVRQAPGQGLEWMGAIYPGNGDTSYNQKFKGRVTISADKSISTAYLQWSSLKASDTAMYYCARSHYGSNYVDYFDYWGQGTLVTVSS
VL: DIVMTQSPLSLPVTPGEPASISCRASSSLSFMHWYQQKPGQAPRLLIYATSNLASGVPSRFSGSGSGTDFTFTISSLQPEDIATYYCHQWSSNPLTFGQGTKVEIKR

binding (human CD20 (human) [13]): binds
B13: anti-CD20 HuFR variant 18 (light chain BD22085, heavy chain BD20339) (antibody, human IgG1, kappa, V domains shown)
VH: QVQLVQSGAEVKKPGASVKVSCKASGYTFTSYNMHWVRQAPGKGLEWMGAIYPGNGDTSYNQKFKGRVTITADKSTSTAYMELSSLRSEDTAVYYCARSHYGSNYVDYFDYWGQGTLVTVSS
VL: DIVMTQSPDSLAVSLGERATINCRASSSLSFMHWYQQKPGQAPRLLIYATSNLASGVPSRFSGSGSGTDFTLTISSLQPEDFATYYCHQWSSNPLTFGQGTKVEIKR

binding (human CD20 (human) [14]): binds
B14: anti-CD20 HuFR variant 29 (light chain BD22104, heavy chain BD20337) (antibody, human IgG1, kappa, V domains shown)
VH: QVQLVQSGAEVKKPGASVKVSCKASGYTFTSYNMHWVRQAPGQGLEWMGAIYPGNGDTSYNQKFKGRVTISADKSISTAYLQWSSLKASDTAMYYCARSHYGSNYVDYFDYWGQGTLVTVSS
VL: EIVMTQSPATLSVSPGERATLSCRASSSLSFMHWYLQKPGQSPQLLIYATSNLASGVPSRFSGSGSGTDFTLTISSLQPEDFATYYCHQWSSNPLTFGQGTKVEIKR

binding (human CD20 (human) [15]): binds
B15: anti-CD20 HuFR variant 11 (light chain BD22092, heavy chain BD20338) (antibody, human IgG1, kappa, V domains shown)
VH: EVQLVQSGAEVKKPGESLKISCKGSGYTFTSYNMHWVRQAPGKGLEWMGAIYPGNGDTSYNQKFKGRVTISADKSISTAYLQWSSLKASDTAMYYCARSHYGSNYVDYFDYWGQGTLVTVSS
VL: DIQMTQSPSSLSASVGDRVTITCRASSSLSFMHWYLQKPGQSPQLLIYATSNLASGVPDRFSGSGSGTDFTLTISSLQAEDVAVYYCHQWSSNPLTFGQGTKVEIKR
